Results published in the supplement of paper PMC10849652.
The other results are listed elsewhere or left out.

Protein sequences, listed by entry. Tags and fused reporters are not part of them. Lines headed by an entry give the natural chain unless they say otherwise; changes in a name come on top.
UniProt O00264: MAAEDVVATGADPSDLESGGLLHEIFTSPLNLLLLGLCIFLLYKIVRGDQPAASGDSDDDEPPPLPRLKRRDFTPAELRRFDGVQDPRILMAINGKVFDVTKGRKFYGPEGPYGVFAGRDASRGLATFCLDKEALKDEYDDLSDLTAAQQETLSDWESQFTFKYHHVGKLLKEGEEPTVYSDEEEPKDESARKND
UniProt Q8WXW3: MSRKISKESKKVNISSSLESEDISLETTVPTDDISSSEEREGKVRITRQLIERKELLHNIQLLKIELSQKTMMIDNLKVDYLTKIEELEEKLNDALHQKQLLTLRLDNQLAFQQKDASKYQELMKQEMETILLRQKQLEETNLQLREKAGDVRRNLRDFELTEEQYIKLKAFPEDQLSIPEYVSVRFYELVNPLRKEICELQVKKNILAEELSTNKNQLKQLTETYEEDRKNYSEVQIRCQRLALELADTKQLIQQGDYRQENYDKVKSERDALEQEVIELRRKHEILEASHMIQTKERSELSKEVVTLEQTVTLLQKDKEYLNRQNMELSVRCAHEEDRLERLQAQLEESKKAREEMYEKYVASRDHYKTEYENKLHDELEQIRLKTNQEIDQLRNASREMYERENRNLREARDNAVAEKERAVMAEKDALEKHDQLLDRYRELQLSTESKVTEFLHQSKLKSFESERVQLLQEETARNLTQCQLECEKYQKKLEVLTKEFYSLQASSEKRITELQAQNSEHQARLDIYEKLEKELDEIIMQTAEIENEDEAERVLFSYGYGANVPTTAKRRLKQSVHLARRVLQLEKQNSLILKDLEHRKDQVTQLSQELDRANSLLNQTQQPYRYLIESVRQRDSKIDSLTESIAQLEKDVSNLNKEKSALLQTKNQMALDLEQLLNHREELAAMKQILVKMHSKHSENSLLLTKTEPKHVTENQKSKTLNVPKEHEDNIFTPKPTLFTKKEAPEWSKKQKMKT
UniProt Q13526, whole entry, looked up: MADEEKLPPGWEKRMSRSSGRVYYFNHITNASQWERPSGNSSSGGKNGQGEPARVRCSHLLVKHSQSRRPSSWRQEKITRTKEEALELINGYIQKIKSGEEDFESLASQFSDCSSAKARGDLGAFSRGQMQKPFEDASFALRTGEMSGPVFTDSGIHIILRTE
UniProt Q4KWH8: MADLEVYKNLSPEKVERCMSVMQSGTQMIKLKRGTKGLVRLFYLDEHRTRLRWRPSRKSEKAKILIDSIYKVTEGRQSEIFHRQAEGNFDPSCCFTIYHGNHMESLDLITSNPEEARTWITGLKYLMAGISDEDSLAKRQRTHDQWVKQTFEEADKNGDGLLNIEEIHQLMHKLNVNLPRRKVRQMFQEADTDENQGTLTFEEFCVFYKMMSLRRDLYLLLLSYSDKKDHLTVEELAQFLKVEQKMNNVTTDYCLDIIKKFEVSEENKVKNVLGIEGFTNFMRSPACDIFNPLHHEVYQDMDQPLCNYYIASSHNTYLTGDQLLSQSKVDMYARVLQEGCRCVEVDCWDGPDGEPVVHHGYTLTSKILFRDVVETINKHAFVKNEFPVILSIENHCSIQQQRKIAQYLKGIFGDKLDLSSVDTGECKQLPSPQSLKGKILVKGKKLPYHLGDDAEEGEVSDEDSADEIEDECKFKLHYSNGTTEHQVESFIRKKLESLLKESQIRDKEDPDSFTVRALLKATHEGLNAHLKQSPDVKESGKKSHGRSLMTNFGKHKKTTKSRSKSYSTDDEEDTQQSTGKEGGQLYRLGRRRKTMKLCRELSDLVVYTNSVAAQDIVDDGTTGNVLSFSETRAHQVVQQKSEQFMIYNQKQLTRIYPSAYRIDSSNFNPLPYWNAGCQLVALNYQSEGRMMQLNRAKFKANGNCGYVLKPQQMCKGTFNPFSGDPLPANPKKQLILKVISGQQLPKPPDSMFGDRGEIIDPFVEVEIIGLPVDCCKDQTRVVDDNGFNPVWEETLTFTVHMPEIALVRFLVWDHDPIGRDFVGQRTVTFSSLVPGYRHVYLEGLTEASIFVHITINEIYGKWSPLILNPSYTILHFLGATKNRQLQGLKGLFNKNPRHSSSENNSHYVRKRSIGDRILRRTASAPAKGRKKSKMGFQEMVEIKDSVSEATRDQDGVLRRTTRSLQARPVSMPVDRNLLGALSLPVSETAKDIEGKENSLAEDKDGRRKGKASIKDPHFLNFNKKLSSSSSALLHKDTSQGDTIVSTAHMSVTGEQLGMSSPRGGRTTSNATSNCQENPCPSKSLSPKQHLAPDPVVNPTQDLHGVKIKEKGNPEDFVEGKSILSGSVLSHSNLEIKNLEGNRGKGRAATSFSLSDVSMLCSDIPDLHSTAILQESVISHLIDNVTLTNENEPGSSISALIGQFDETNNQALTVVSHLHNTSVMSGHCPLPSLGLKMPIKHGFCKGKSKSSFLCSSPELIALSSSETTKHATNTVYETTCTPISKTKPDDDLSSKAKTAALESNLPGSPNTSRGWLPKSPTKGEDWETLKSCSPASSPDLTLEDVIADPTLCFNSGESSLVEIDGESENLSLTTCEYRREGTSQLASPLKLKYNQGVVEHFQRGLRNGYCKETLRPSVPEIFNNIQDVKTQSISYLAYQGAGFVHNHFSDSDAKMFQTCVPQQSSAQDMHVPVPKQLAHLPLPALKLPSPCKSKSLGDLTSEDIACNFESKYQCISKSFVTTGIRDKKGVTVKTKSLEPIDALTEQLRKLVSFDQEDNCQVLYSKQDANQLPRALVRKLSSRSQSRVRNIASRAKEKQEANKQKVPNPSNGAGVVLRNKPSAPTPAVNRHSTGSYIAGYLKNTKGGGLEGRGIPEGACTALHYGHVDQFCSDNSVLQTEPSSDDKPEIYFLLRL
UniProt O95427: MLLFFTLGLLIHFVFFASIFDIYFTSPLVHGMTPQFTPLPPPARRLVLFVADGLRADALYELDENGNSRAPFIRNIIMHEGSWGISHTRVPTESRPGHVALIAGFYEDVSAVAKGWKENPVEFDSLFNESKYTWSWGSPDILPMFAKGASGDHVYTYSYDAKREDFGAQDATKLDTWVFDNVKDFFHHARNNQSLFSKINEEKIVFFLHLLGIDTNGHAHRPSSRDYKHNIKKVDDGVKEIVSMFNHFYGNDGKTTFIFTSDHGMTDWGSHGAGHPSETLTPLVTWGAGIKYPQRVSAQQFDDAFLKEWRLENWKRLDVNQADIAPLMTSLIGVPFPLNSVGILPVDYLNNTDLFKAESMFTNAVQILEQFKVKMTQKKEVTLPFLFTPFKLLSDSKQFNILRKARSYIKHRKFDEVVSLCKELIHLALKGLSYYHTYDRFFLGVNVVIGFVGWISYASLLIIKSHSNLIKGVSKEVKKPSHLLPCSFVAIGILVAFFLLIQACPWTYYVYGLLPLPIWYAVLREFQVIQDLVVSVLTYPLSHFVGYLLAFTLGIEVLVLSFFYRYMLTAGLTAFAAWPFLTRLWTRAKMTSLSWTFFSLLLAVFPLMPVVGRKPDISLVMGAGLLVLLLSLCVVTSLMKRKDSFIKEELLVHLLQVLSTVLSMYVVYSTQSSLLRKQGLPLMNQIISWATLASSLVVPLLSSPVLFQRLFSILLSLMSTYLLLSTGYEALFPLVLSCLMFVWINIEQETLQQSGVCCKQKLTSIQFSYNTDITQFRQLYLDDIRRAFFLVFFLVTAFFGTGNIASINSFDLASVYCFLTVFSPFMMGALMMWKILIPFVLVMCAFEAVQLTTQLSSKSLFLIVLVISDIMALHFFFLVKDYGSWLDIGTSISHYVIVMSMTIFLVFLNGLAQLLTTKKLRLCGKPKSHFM
UniProt Q99453, whole entry, looked up: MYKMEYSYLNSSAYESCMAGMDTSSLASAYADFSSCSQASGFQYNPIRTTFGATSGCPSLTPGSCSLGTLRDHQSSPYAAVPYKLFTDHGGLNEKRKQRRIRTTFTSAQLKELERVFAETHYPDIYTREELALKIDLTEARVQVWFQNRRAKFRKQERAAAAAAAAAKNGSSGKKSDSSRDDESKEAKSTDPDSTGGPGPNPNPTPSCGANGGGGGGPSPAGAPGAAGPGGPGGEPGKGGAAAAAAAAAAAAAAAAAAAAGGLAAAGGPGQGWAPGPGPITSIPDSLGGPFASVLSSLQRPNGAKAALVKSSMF
UniProt O00329: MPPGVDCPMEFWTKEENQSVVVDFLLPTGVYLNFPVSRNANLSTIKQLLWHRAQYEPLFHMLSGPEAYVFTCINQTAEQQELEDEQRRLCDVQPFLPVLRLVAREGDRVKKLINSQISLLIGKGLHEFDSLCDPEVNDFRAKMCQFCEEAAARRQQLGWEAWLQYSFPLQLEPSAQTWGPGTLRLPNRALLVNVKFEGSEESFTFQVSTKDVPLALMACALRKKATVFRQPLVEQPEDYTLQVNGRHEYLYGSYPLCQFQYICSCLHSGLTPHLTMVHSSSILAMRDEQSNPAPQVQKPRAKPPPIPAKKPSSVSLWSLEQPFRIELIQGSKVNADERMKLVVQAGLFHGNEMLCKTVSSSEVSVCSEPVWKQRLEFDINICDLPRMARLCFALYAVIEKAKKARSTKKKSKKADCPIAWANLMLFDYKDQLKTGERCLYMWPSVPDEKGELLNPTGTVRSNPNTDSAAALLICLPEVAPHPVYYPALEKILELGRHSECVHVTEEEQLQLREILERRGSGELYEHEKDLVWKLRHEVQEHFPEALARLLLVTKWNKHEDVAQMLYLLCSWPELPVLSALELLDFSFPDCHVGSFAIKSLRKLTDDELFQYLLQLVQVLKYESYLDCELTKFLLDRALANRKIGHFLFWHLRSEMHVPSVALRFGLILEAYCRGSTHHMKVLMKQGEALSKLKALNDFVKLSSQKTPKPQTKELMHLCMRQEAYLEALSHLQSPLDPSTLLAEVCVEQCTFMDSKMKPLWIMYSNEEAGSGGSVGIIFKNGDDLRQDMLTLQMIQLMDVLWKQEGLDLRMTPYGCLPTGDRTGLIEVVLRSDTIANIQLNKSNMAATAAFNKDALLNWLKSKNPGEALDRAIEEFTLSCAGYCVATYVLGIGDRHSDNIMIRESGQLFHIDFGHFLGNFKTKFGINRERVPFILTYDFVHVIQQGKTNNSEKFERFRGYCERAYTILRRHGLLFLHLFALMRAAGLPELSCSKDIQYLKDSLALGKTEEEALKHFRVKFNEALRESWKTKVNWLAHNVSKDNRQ
UniProt P78364: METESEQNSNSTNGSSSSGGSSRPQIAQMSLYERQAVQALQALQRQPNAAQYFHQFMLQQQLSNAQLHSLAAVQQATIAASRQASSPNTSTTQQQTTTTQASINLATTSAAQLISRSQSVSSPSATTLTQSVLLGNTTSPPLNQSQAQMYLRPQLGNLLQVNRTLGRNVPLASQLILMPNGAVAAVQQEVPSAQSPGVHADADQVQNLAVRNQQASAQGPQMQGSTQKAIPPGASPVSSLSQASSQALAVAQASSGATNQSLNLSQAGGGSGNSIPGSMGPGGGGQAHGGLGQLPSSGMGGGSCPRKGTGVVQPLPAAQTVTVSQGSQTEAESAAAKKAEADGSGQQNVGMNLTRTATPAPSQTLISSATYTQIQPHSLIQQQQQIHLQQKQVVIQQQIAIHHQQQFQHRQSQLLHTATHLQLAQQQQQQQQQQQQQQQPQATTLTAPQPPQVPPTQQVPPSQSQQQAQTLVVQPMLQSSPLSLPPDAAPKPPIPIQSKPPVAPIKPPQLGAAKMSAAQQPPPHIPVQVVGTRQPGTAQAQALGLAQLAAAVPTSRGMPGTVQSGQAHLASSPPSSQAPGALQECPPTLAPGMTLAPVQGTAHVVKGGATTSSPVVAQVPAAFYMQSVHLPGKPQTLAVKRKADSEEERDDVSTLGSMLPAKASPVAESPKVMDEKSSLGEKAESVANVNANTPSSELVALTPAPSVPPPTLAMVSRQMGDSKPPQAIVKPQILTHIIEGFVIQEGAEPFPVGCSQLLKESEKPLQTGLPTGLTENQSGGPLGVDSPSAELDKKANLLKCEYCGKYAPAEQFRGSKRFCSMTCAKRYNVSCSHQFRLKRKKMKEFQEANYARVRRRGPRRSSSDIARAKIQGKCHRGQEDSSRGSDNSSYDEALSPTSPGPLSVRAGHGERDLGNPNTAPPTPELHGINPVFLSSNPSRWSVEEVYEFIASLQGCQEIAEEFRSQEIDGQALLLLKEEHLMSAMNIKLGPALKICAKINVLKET
UniProt Q99640: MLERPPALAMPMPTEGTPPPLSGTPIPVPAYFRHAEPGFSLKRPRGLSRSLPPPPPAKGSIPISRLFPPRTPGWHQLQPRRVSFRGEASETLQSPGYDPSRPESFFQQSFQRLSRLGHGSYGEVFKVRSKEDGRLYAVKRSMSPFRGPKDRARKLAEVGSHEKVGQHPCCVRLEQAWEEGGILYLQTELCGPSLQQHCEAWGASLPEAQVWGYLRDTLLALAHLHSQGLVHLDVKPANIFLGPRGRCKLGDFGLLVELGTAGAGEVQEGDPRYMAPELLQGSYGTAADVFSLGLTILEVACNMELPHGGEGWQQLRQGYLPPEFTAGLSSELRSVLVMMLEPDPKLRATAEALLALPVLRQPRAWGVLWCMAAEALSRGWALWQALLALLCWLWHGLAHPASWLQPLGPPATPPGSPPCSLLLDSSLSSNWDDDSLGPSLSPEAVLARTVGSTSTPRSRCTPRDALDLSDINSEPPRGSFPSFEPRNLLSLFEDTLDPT

Legend:
Test in all cases: log2 fold change, soluble protein after heating vs DMSO (PISA); higher = thermal stabilisation; K562 lysate, 10 uM; active = over 0.2 and 3.5 SD of the protein, either way, in both replicates (recomputed)
[1] = compound: CCCS(=O)(=O)Nc1ccc(F)c(C(=O)c2c[nH]c3ncc(-c4ccc(Cl)cc4)cc23)c1F [vemurafenib]
Method in brief: (§1)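 Soluble protein was defined as the supernatant remaining after 21,000xg for 90 min, following pooling of heated aliquots and adjustment to 0.5% NP-40 at 4°C. Before that, crude K562 extract at 1 mg/mL protein in PBS pH 7.4 with 1 mM MgCl2 was treated with 10 μM compound for 30 min and heated for 3 min across 48°C-58°C. Quantification used TMTpro 16plex LC-MS/MS with channel sums equalised, and values are log-two fold changes in thermal stability relative to solvent controls from duplicates.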

[2] = compound: CCCS(=O)(=O)Nc1ccc(F)c(C(=O)c2c[nH]c3ncc(Cl)cc23)c1F
Method in brief: as §1

[3] = compound: CCN(CCCOc1ccc2c(Nc3cc(CC(=O)Nc4cccc(F)c4)[nH]n3)ncnc2c1)CCOP(=O)(O)O [barasertib]
Method in brief: as §1

[4] = compound: CC[C@@H]1C(=O)N(C)c2cnc(Nc3ccc(C(=O)NC4CCN(C)CC4)cc3OC)nc2N1C1CCCC1
Method in brief: as §1

[5] = compound: CC[C@@H]1C(=O)N(C)c2cnc(Nc3ccc(C(=O)N[C@H]4CC[C@H](N5CCN(CC6CC6)CC5)CC4)cc3OC)nc2N1C(C)C [volasertib]
Method in brief: as §1

[6] = compound: CCn1c(C(=O)N(C2CC2)C2CC2)cc2c3c(ncn3C)c(Nc3cc(C)n(C)n3)nc21
Method in brief: as §1

[7] = compound: CCn1cc(-c2ccnc3[nH]c(-c4cccc(CN(C)C)c4)cc23)c(-c2ccc(NC(=O)N(C)C)cc2)n1
Method in brief: as §1

[8] = compound: CN1CCC(CNc2ccc3ncc(-c4cccc(OC(F)(F)F)c4)n3n2)CC1
Method in brief: as §1

[9] = compound: CN1CCN(CCOc2cc(OC3CCOCC3)c3c(Nc4c(Cl)ccc5c4OCO5)ncnc3c2)CC1 [saracatinib]
Method in brief: as §1

[10] = compound: CN1CCN(c2nc(C3=C(c4c[nH]c5ccccc45)C(=O)NC3=O)c3ccccc3n2)CC1 [sotrastaurin]
Method in brief: as §1

Target | log2 fold change [1] | log2 fold change [2] | log2 fold change [3] | log2 fold change [4] | log2 fold change [5] | log2 fold change [6] | log2 fold change [7] | log2 fold change [8] | log2 fold change [9] | log2 fold change [10]
PHKA2 (UniProt P46019) | inactive: -0.065 | inactive: 0.053 | inactive: 0.072 | inactive: 0.059 | inactive: 0.021 | inactive: 0.024 | inactive: 0.009 | inactive: -0.084 | inactive: 0.002 | inactive: -0.058
PLCG1 isoform 2 (UniProt P19174) | inactive: -0.035 | inactive: 0.016 | inactive: 0.032 | inactive: -0.096 | inactive: -0.073 | inactive: 0.004 | inactive: -0.159 | inactive: 0.077 | inactive: 0.004 | inactive: -0.004
PGRMC1 (UniProt O00264) | inactive: -0.009 | inactive: -0.043 | inactive: 0.019 | inactive: 0.015 | inactive: 0.008 | inactive: 0.021 | inactive: -0.045 | inactive: 0.071 | inactive: -0.017 | inactive: -0.003
PIGM (UniProt Q9H3S5) | inactive: 0.074 | inactive: 0.049 | inactive: 0.058 | inactive: 0.04 | inactive: 0.075 | inactive: -0.022 |  |  |  | inactive: -0.014
PI4KB (UniProt Q9UBF8) | active: 0.222 | inactive: 0.011 | inactive: -0.051 | inactive: 0.049 | inactive: -0.026 | inactive: -0.016 | inactive: -0.038 | inactive: 0.134 | inactive: -0.006 | inactive: 0.012
PIBF1 (UniProt Q8WXW3) | inactive: 0.265 | inactive: 0.065 | inactive: 0.046 | inactive: -0.001 | inactive: 0.007 | inactive: 0.087 | inactive: -0.025 | inactive: 0.029 | inactive: 0.007 | inactive: -0.003
PIP4K2B (UniProt P78356) | inactive: 0.016 | inactive: 0.012 | inactive: -0.045 | active: 0.21 | inactive: 0.092 | inactive: 0.038 | inactive: 0.048 | inactive: 0.065 | inactive: -0.045 | inactive: -0.009
PIN1 (UniProt Q13526) | inactive: 0.023 | inactive: 0.008 | inactive: -0.02 | inactive: 0.028 | inactive: -0.007 | inactive: -0.006 | inactive: -0.035 | inactive: 0.014 | inactive: -0.022 | inactive: -0.053
PLCH1 (UniProt Q4KWH8) | inactive: -0.04 | inactive: -0.028 | inactive: 0 | inactive: -0.139 | inactive: 0.045 | inactive: 0.002 | inactive: 0.163 | inactive: 0.036 | inactive: -0.015 | inactive: 0.02
PIGK (UniProt Q92643) | inactive: 0.035 | inactive: 0.047 | inactive: -0.035 | inactive: 0.004 | inactive: -0.026 | inactive: -0.02 | inactive: -0.113 | inactive: 0.101 | inactive: 0.012 | inactive: 0.006
PHF6 (UniProt Q8IWS0) | inactive: -0.014 | inactive: 0.026 | inactive: -0.037 | inactive: -0.055 | inactive: -0.033 | inactive: 0.031 | inactive: 0.173 | inactive: -0.027 | inactive: 0.006 | inactive: -0.058
PIGN (UniProt O95427) | inactive: 0.045 | inactive: -0.135 |  | inactive: 0.053 | inactive: -0.022 | inactive: -0.023 |  |  | inactive: -0.038 | 
PLEC isoform 3 (UniProt Q15149) | inactive: 0.057 |  | inactive: 0.116 | inactive: -0.268 |  |  | inactive: 0.064 | inactive: -0.228 |  | inactive: 0.08
PKN2 (UniProt Q16513) | inactive: 0.05 | inactive: 0.04 | inactive: 0.081 |  | inactive: -0.004 | inactive: -0.002 | inactive: -0.012 | inactive: -0.086 | inactive: 0.027 | 
PITX1 (UniProt P78337) | inactive: -0.064 |  | inactive: -0.088 | inactive: -0.061 |  |  |  |  | inactive: -0.016 | inactive: -0.015
PGK2 (UniProt P07205) | inactive: -0.057 | inactive: 0.061 |  | inactive: -0.183 | inactive: -0.094 | inactive: -0.029 | inactive: 0.038 | inactive: -0.153 |  | 
PKM (UniProt H3BTN5) | inactive: 0.036 | inactive: -0.082 | inactive: -0.099 | inactive: -0.077 | inactive: 0.104 |  |  |  |  | inactive: 0.032

Rewritten as comma-separated lines: entries from further up
Target,log2 fold change [1],log2 fold change [2],log2 fold change [3],log2 fold change [4],log2 fold change [5],log2 fold change [6],log2 fold change [7],log2 fold change [8],log2 fold change [9],log2 fold change [10]
PLEC isoform 3 (UniProt Q15149),inactive: 0.057,,inactive: 0.116,inactive: -0.268,,,inactive: 0.064,inactive: -0.228,,inactive: 0.08
PITX1 (UniProt P78337),inactive: -0.064,,inactive: -0.088,inactive: -0.061,,,,,inactive: -0.016,inactive: -0.015

(continued)

Target | log2 fold change [1] | log2 fold change [2] | log2 fold change [3] | log2 fold change [4] | log2 fold change [5] | log2 fold change [6] | log2 fold change [7] | log2 fold change [8] | log2 fold change [9] | log2 fold change [10]
PHOX2B (UniProt Q99453) | inactive: 0.151 |  | inactive: -0.111 | inactive: -0.095 |  |  |  |  | inactive: 0.252 | inactive: 0.155
PLA2G12A (UniProt Q9BZM1) | inactive: -0.074 | inactive: 0.05 | inactive: -0.229 |  | inactive: -0.069 | inactive: 0.018 | inactive: 0.048 | inactive: -0.137 | inactive: -0.003 | inactive: 0.138
PHC3 isoform 7 (UniProt Q8NDX5) | inactive: 0.03 | inactive: 0.027 |  | inactive: 0.125 | inactive: -0.053 |  | inactive: -0.167 | inactive: 0.007 | inactive: -0.1 | inactive: 0.357
PIP5K1C isoform 3 (UniProt O60331) |  | inactive: -0.02 | inactive: -0.03 | inactive: 0.153 | inactive: -0.032 | inactive: 0.035 |  |  | inactive: -0.059 | inactive: 0.051
PIGW (UniProt Q7Z7B1) | inactive: 0.139 |  |  |  |  | inactive: 0.06 |  |  | inactive: 0.019 | inactive: 0.007
PHLPP1 (UniProt O60346) | inactive: -0.001 |  | inactive: 0.008 |  |  | inactive: -0.171 | inactive: -0.076 | inactive: -0.032 | inactive: 0.157 | inactive: -0.049
PIK3CD (UniProt O00329) | inactive: -0.094 | inactive: 0.005 | inactive: -0.046 |  | inactive: -0.015 | inactive: 0.072 | inactive: -0.109 | inactive: 0.398 | inactive: -0.04 | inactive: 0.023
PGM3 (UniProt D6RCQ8) |  | inactive: -0.235 | inactive: 0.183 |  | inactive: -0.011 |  |  |  |  | 
PIAS4 (UniProt Q8N2W9) | inactive: 0.077 |  |  | inactive: -0.017 |  | inactive: 0.051 | inactive: -0.241 | inactive: 0.029 | inactive: 0.048 | inactive: 0.007
PHC1 (UniProt P78364) | inactive: 0.042 |  | inactive: 0.034 | inactive: 0.097 |  |  |  |  | inactive: 0.066 | inactive: -0.354
PIK3C2A (UniProt O00443) |  | inactive: -0.056 | inactive: 0.056 | inactive: 0.007 | inactive: 0.047 | inactive: 0 |  |  | inactive: -0.003 | inactive: -0.065
PIGX isoform 2 (UniProt Q8TBF5) |  | inactive: 0.051 | inactive: -0.029 | inactive: 0.077 | inactive: -0.003 | inactive: -0.202 | inactive: -0.169 | inactive: 0.153 | inactive: 0.11 | inactive: -0.029
PHF19 isoform 2 (UniProt Q5T6S3) | inactive: -0.06 |  | inactive: 0.055 | inactive: 0.134 |  |  | inactive: 0.087 | inactive: 0.08 |  | 
PIGB (UniProt Q92521) | inactive: -0.17 |  | inactive: 0.049 | inactive: 0.17 |  | inactive: -0.009 | inactive: -0.117 | inactive: 0.161 |  | inactive: 0.069
PKMYT1 (UniProt Q99640) | inactive: 0.004 |  |  | inactive: 0.076 |  | inactive: -0.048 | inactive: -0.12 | inactive: -0.031 |  | inactive: 0.115
PIK3CG (UniProt P48736) | inactive: 0.028 |  | inactive: 0.046 | inactive: 0.004 |  | inactive: 0.006 | active: -0.276 | active: 0.289 | inactive: 0.028 | inactive: 0.051
PIGL (UniProt Q9Y2B2) |  | inactive: -0.096 | inactive: -0.083 | inactive: -0.092 | inactive: -0.452 | inactive: -0.035 |  |  | inactive: 0.003 | inactive: 0.076
